Reference: patent publication EP2520585A1, “Identification of region of RON2 of Apicomplexan parasites suitable for targeting by vaccines and drugs” (priority 2011, dated 2012)
Part of at least one peptide drawing is inferred or uncertain, most often the ends. Where a SMILES comes first, the peptide text is derived from it. Bridges are numbered along the chain shown (N, C = ends).

Protein sequences, listed by entry. Tags and fused reporters are not part of them. Residues count along the entry.
UniProt B6KAM0, 64-484: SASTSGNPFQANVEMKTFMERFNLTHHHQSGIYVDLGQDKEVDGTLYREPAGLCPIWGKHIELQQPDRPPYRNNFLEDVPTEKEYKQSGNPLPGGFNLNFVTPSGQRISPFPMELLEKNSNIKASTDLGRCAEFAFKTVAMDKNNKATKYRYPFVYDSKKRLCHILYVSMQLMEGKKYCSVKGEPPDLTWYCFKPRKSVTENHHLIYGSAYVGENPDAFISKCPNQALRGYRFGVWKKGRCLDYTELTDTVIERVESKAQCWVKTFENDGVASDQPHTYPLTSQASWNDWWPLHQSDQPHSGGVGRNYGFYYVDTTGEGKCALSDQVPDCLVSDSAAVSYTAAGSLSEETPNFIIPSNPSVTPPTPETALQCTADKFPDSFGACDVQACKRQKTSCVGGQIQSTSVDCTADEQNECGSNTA

Target: T1, TgAMA1 (Toxoplasma gondii, UniProt B6KAM0)
T1 construct: made in house; host or cells: insect cells
Assay: Competitive ELISA of TgRON2sp against TgRON2-2 on coated TgAMA1
Format: binding
Conditions: 1 µg/mL TgRON2-2 pre-incubated 15 min with 0 to 1 µg/mL TgRON2sp; TgAMA1 coated at 1 µg/mL

CC[C@H](C)[C@H](NC(=O)[C@H](C)NC(=O)[C@H](CCC(N)=O)NC(=O)[C@@H]1CCCN1C(=O)[C@H](C)NC(=O)[C@@H]1CSSC[C@H](NC(=O)[C@H](CO)NC(=O)[C@@H](NC(=O)[C@@H]2CCCN2C(=O)[C@@H]2CCCN2C(=O)[C@H](C)NC(=O)CNC(=O)CNC(=O)[C@@H](NC(=O)[C@H](CC(=O)O)NC(=O)[C@H](CCC(=O)O)NC(=O)[C@H](CCSC)NC(=O)[C@H](Cc2c[nH]cn2)NC(=O)[C@H](CCC(N)=O)NC(=O)[C@@H](NC(=O)[C@@H](NC(=O)[C@@H](N)CC(=O)O)[C@@H](C)CC)C(C)C)[C@@H](C)CC)C(C)C)C(=O)N[C@@H](C(C)C)C(=O)N[C@@H]([C@@H](C)O)C(=O)N[C@@H](CC(N)=O)C(=O)N[C@@H](CCC(=O)O)C(=O)N[C@@H]([C@@H](C)CC)C(=O)N[C@@H](CC(C)C)C(=O)NCC(=O)N[C@@H](C(C)C)C(=O)N[C@@H]([C@@H](C)O)C(=O)N1)C(=O)N[C@@H](C)C(=O)N[C@@H](CCCCN)C(=O)N[C@@H](C)C(=O)N[C@H](C(=O)N[C@H](C(N)=O)[C@@H](C)O)[C@@H](C)O [TgRON2sp] (H-DIVQHMEDIGGAPPVSCVTNEILGVTCAPQAIAKATT-NH2; disulfide 17-27)
binding of TgRON2-2 to TgAMA1: prevents the binding of TgRON2-2 to TgAMA1 in a dose-dependent fashion
